According to patent US4481194A (SmithKline Beckman Corporation, priority 1984, dated 1984):

Assay: general procedure: Boc solid-phase peptide synthesis; Boc-Arg(Tos)-BHA (benzhydrylamine) resin, 0.709 mmol/g available; DCC / 1-hydroxybenzotriazole (HBT)
Details: whole synthesis; for crude yield: scale of the general procedure 0.355 mmol each
[1] = one disulfide bridge, sequence written open

Substance	crude mass [mg]	crude yield [%]	crude mass [1] [mg]	crude yield [1] [%]
PEPTIDE1{[Pmp].[D-Tyr(Et)].F.V.N.C.R.[am]}$PEPTIDE1,PEPTIDE1,1:R3-6:R3$$$V2.0	80	23		
Pmp-D-Tyr(Et)-Phe-Abu-Asn-Cys-Arg(NH2)			115	33

HELM strings list residues between dots; [ac] is acetyl, [am] amide, other brackets name non-standard units.
